Experimental data taken from paper PMC10852989, “Combining cisplatin and a STING agonist into one molecule for metalloimmunotherapy of cancer” (National Science Review, 2024).

Test system: Pan02 cells
Test: bulk mRNA sequencing of treated Pan02 cells
Format: cell-based, mouse
Conditions: Pan02, 5 μM, 20 h; I-treated versus untreated; P < 0.05, |log2(fold change)| > 1

With `COc1cc2cc(C(=O)CCC(=O)[O][Pt]([NH2])([NH2])([OH])([Cl])[Cl])sc2cc1OC` [conjugate I] the transcripts significantly downregulated was 2143 and the transcripts significantly upregulated was 2563.
